The results in this text go back to PMC8973879.

The target in assay [1] is T1, HA-FOXM1 (UniProt Q08050).
T1 sequence: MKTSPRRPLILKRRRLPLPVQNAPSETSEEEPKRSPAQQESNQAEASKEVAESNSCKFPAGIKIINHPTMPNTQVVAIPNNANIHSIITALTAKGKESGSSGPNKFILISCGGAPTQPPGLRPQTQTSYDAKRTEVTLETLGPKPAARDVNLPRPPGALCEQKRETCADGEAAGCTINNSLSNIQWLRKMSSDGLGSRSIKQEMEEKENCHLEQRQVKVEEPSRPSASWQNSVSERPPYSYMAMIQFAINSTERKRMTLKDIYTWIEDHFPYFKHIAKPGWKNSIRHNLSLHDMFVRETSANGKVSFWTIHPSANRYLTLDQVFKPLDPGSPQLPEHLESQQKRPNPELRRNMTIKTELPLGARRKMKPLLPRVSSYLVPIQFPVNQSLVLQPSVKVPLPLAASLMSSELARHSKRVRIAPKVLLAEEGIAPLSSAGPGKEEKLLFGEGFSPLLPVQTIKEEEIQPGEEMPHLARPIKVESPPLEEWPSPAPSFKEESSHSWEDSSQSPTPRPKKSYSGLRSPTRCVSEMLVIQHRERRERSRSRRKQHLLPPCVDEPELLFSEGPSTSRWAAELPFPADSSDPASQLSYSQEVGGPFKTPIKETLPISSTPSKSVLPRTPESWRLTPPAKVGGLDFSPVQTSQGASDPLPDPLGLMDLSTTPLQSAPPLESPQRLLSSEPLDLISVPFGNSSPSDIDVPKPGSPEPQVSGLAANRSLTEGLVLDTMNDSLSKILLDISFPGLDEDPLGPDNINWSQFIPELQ
The assay is described as follows: co-IP; HEK293T cells transiently co-transfected with HA-FOXM1 and full-length or truncated GFP-STIL; immunoprecipitation with anti-HA antibody; Western blotting. In general terms: Immunoblotting shows a protein as a band on a membrane.

In assay [2] the target is T1, HA-FOXM1. The assay is described as follows: co-IP; exogenous GFP-STIL and HA-FOXM1 expressed in HEK293T cells (Additional file 2: Fig. S6f); precipitating antibody not shown.
Assay [3] concerns the target T2, STIL (SCL/TAL1-interrupting locus), endogenous (human (endogenous in CL1-5)) (UniProt Q15468).
T2 sequence: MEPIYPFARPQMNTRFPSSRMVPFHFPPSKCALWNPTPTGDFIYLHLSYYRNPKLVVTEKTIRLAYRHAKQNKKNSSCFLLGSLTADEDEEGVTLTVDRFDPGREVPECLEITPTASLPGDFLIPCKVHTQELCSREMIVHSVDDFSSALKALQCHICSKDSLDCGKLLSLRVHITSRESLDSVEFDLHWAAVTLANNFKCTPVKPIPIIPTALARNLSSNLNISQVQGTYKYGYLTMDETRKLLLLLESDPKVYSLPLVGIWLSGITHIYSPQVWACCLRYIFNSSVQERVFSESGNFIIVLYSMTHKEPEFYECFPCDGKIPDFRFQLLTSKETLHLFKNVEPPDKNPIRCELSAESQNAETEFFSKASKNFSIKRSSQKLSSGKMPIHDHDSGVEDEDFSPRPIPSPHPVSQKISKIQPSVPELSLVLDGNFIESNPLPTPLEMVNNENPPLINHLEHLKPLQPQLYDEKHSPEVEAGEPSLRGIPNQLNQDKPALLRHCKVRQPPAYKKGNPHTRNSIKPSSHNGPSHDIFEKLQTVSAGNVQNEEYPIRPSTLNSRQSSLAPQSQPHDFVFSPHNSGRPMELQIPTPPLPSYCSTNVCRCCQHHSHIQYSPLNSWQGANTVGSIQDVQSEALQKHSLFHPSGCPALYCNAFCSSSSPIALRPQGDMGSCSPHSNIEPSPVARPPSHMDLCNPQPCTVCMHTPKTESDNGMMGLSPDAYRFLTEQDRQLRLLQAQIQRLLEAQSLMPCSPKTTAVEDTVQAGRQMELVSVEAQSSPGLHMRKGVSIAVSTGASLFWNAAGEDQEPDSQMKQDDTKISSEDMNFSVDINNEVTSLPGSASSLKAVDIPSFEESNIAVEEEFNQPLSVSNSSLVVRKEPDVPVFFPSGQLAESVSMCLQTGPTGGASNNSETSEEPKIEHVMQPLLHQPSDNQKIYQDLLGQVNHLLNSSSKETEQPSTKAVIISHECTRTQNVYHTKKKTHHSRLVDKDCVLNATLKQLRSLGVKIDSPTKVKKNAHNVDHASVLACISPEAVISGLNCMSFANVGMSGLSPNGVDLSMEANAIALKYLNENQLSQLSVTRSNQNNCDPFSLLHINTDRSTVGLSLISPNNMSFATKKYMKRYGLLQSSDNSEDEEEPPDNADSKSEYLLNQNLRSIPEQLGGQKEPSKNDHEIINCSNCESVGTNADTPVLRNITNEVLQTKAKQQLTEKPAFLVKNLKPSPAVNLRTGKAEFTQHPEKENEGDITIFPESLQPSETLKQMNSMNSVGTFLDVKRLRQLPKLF
Description: co-IP; endogenous proteins, CL1-5 cells lysed in RIPA buffer; immunoprecipitation with anti-STIL or anti-FOXM1 antibody (4 °C, 1 h), protein A/G agarose overnight at 4 °C; Western blotting.

The target in assay [4] is T2, STIL (SCL/TAL1-interrupting locus), endogenous (human (endogenous in CL1-5)). Description: co-IP; co-IP from cytoplasmic and nuclear fractions (Additional file 2: Fig. S6e); cells and antibodies not shown.

These are yes or no findings as the source states them, for the method shown. In cells and extracts the contact can be indirect. Some binding calls cover weakened binding; strength is not graded here. For some of these results: Tags and fused reporters may be left off the sequences shown.

B1: GFP-STIL, full length (protein, UniProt Q15468-2 1-1288)
chain: MEPIYPFARPQMNTRFPSSRMVPFHFPPSKCALWNPTPTGDFIYLHLSYYRNPKLVVTEKTIRLAYRHAKQNKKNSSCFLLGSLTADEDEEGVTLTVDRFDPGREVPECLEITPTASLPGDFLIPCKVHTQELCSREMIVHSVDDFSSALKALQCHICSKDSLDCGKLLSLRVHITSRESLDSVEFDLHWAAVTLANNFKCTPVKPIPIIPTALARNLSSNLNISQVQGTYKYGYLTMDETRKLLLLLESDPKVYSLPLVGIWLSGITHIYSPQVWACCLRYIFNSSVQERVFSESGNFIIVLYSMTHKEPEFYECFPCDGKIPDFRFQLLTSKETLHLFKNVEPPDKNPIRCELSAESQNAETEFFSKASKNFSIKRSSQKLSSGKMPIHDHDSGVEDEDFSPRPIPSPHPVSQKISKIQPSVPELSLVLDGNFIESNPLPTPLEMVNNENPPLINHLEHLKPLQPQLYDEKHSPEVEAGEPSLRGIPNQLNQDKPALLRHCKVRQPPAYKKGNPHTRNSIKPSSHNGPSHDIFEKLQTVSAGNVQNEEYPIRPSTLNSRQSSLAPQSQPHDFVFSPHNSGRPMELQIPTPPLPSYCSTNVCRCCQHHSHIQYSPLNSWQGANTVGSIQDVQSEALQKHSLFHPSGCPALYCNAFCSSSSPIALRPQGDMGSCSPHSNIEPSPVARPPSHMDLCNPQPCTVCMHTPKTESDNGMMGLSPDAYRFLTEQDRQLRLLQAQIQRLLEAQSLMPCSPKTTAVEDTVQAGRQMELVSVEAQSSPGLHMRKGVSIAVSTGASLFWNAAGEDQEPDSQMKQDDTKISSEDMNFSVDINNEVTSLPGSASSLKAVDIPSFEESNIAVEEEFNQPLSVSNSSSLVVRKEPDVPVFFPSGQLAESVSMCLQTGPTGGASNNSETSEEPKIEHVMQPLLHQPSDNQKIYQDLLGQVNHLLNSSSKETEQPSTKAVIISHECTRTQNVYHTKKKTHHSRLVDKDCVLNATLKQLRSLGVKIDSPTKVKKNAHNVDHASVLACISPEAVISGLNCMSFANVGMSGLSPNGVDLSMEANAIALKYLNENQLSQLSVTRSNQNNCDPFSLLHINTDRSTVGLSLISPNNMSFATKKYMKRYGLLQSSDNSEDEEEPPDNADSKSEYLLNQNLRSIPEQLGGQKEPSKNDHEIINCSNCESVGTNADTPVLRNITNEVLQTKAKQQLTEKPAFLVKNLKPSPAVNLRTGKAEFTQHPEKENEGDITIFPESLQPSETLKQMNSMNSVGTFLDVKRLRQLPKLF
For B1, the binding result with HA-FOXM1 [1] and with HA-FOXM1 [2] was “binds” in each case.

B2: FOXM1 (Forkhead box protein M1), endogenous (protein, UniProt Q08050 1-763)
chain: MKTSPRRPLILKRRRLPLPVQNAPSETSEEEPKRSPAQQESNQAEASKEVAESNSCKFPAGIKIINHPTMPNTQVVAIPNNANIHSIITALTAKGKESGSSGPNKFILISCGGAPTQPPGLRPQTQTSYDAKRTEVTLETLGPKPAARDVNLPRPPGALCEQKRETCADGEAAGCTINNSLSNIQWLRKMSSDGLGSRSIKQEMEEKENCHLEQRQVKVEEPSRPSASWQNSVSERPPYSYMAMIQFAINSTERKRMTLKDIYTWIEDHFPYFKHIAKPGWKNSIRHNLSLHDMFVRETSANGKVSFWTIHPSANRYLTLDQVFKPLDPGSPQLPEHLESQQKRPNPELRRNMTIKTELPLGARRKMKPLLPRVSSYLVPIQFPVNQSLVLQPSVKVPLPLAASLMSSELARHSKRVRIAPKVLLAEEGIAPLSSAGPGKEEKLLFGEGFSPLLPVQTIKEEEIQPGEEMPHLARPIKVESPPLEEWPSPAPSFKEESSHSWEDSSQSPTPRPKKSYSGLRSPTRCVSEMLVIQHRERRERSRSRRKQHLLPPCVDEPELLFSEGPSTSRWAAELPFPADSSDPASQLSYSQEVGGPFKTPIKETLPISSTPSKSVLPRTPESWRLTPPAKVGGLDFSPVQTSQGASDPLPDPLGLMDLSTTPLQSAPPLESPQRLLSSEPLDLISVPFGNSSPSDIDVPKPGSPEPQVSGLAANRSLTEGLVLDTMNDSLSKILLDISFPGLDEDPLGPDNINWSQFIPELQ
Take B2: the binding entry in assay [3] and in assay [4] was “binds” in each case.
